Where a chain is given by its changes, count along the chain named. Names may count otherwise. These are yes or no findings as the source states them, for the method shown. Some binding calls cover weakened binding; strength is not graded here.

Chains of the proteins cited; added tags and fusions are not shown. Lines headed by an entry give the natural chain unless they say otherwise; changes in a name come on top.
UniProt Q9NR61: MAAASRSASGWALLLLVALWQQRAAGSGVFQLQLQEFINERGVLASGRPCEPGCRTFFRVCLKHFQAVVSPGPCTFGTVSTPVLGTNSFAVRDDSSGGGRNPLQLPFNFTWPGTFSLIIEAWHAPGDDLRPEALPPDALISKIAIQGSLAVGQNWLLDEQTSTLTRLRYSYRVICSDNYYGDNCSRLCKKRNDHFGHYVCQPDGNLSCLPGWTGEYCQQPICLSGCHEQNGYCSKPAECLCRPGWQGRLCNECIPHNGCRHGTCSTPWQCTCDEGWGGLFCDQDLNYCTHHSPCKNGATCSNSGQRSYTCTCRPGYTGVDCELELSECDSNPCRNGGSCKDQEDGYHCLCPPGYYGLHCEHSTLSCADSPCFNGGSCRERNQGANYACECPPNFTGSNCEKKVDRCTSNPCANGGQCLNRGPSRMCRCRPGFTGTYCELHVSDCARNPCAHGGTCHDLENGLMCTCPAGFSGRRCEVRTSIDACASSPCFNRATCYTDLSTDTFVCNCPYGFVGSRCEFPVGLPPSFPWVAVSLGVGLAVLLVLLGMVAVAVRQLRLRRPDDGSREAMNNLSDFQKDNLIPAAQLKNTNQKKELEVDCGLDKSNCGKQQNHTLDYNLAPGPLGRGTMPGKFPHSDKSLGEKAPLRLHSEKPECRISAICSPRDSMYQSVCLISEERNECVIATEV

In assay [1] the target is Recombinant Human DLL4 (R&D Systems Cat#1506-D4/CF) (human) (UniProt Q9NR61). Put plainly: ECL.
The target is the same in assay [2]. Put plainly: ELISA, 100 nM Fab. Background: An ELISA detects its analyte on a solid surface through an enzyme-linked reagent.
For assay [3] the target is unchanged. The assay is described as follows: ELISA titration, 2-fold dilutions from 100 nM Fab.

B1: Fab VH5-51_IGHD5-18*01>3_IGHJ4*01 G100K/G104T (H:KT) & V3-4_IGLJ1*01 S52A/A116T (Fab, V domains shown)
VH: EVQLVQSGAEVKKPGESLKISCKGSGYSFTSYWIGWVRQMPGKGLEWMGIIYPGDSDTRYSPSFQGQVTISADKSISTAYLQWSSLKASDTAMYYCARRKYSYTYDYFDYWGQGTLVTVSS
VL: QTVVTQEPSFSVSPGGTVTLTCGLASGSVSTSYYPSWYQQTPGQAPRTLIYSTNTRSSGVPDRFSGSILGNKAALTITGAQADDESDYYCVLYMGSGISYVFGTGTKVTVLG
For the molecule B1, the binding entry in assay [1] is “binds”.

B2: Fab H:KT TRV & V3-4_IGLJ1*01 V91L/S96P S52H (Fab, V domains shown)
VH: B1 VH with G24T, S28R, G35V
VL: QTVVTQEPSFSVSPGGTVTLTCGLSSGSVSTSYYPSWYQQTPGQAPRTLIYHTNTRSSGVPDRFSGSILGNKAALTITGAQADDESDYYCLLYMGPGISYVFGTGTKVTVL
As to B2, the binding entry in assay [2] and in assay [3] was “binds” in each case.
